PubChem BioAssay AID1224830, NIAID, 2016
The deposit covers about 18,000 reagents; below is a part drawn at random. About 2,900 of them (16%) were called active. 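Calls are made per well; low scores hint the gene aids the LPS response, high scores that it dampens it.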 Repeated entries: four replicate wells of each siRNA pool.

- Purpose: 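Genes whose knock-down alters the TNF-alpha reporter response to LPS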 (primary screen)
- Cell system: human THP-1 monocytic leukaemia cells, TNF dual-luciferase reporter clone, PMA-differentiated to macrophage-like cells
- Reagent: siRNA pool against human genes, 50 nM
- Timing: LPS for 4 h, given about 3 days after siRNA transfection
- Treatment: bacterial LPS (TLR4 ligand), 10 ng/ml
- Detection: 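TNF firefly reporter luminescence divided by renilla, normalised to the plate median, then turned into a robust z-score for each replicate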
- Scale: TNF reporter robust z-score: higher = stronger TNF reporter response to LPS
- Call rule: 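a well is active when its z-score exceeds 2.8 or falls below -1.5; control wells carry no call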

| gene | TNF reporter robust z-score | outcome |
| --- | --- | --- |
| GUCA2A (guanylate cyclase activator 2A) | 0.57 | inactive |
| GUCA2A (guanylate cyclase activator 2A) | 0.05 | inactive |
| GUCA2A (guanylate cyclase activator 2A) | 0.71 | inactive |
| GUCA2A (guanylate cyclase activator 2A) | 1.56 | inactive |
| ZSCAN1 (zinc finger and SCAN domain containing 1) | 0.07 | inactive |
| ZSCAN1 (zinc finger and SCAN domain containing 1) | 1.45 | inactive |
| ZSCAN1 (zinc finger and SCAN domain containing 1) | -1.31 | inactive |
| ZSCAN1 (zinc finger and SCAN domain containing 1) | -0.54 | inactive |
| OR51G2 (olfactory receptor family 51 subfamily G member 2) | 3.18 | active |
| OR51G2 (olfactory receptor family 51 subfamily G member 2) | 2.74 | inactive |
| OR51G2 (olfactory receptor family 51 subfamily G member 2) | -0.34 | inactive |
| OR51G2 (olfactory receptor family 51 subfamily G member 2) | -0.08 | inactive |
| ELP5 (elongator acetyltransferase complex subunit 5) | -1.08 | inactive |
| ELP5 (elongator acetyltransferase complex subunit 5) | -0.81 | inactive |
| ELP5 (elongator acetyltransferase complex subunit 5) | -0.68 | inactive |
| ELP5 (elongator acetyltransferase complex subunit 5) | -1.57 | active |
| C1QTNF4 (C1q and TNF related 4) | 0.88 | inactive |
| C1QTNF4 (C1q and TNF related 4) | 4.05 | active |
| C1QTNF4 (C1q and TNF related 4) | 3.37 | active |
| C1QTNF4 (C1q and TNF related 4) | 4.06 | active |
| P2RY8 (P2Y receptor family member 8) | -0.43 | inactive |
| P2RY8 (P2Y receptor family member 8) | -0.31 | inactive |
| P2RY8 (P2Y receptor family member 8) | -0.7 | inactive |
| P2RY8 (P2Y receptor family member 8) | 0.06 | inactive |
| EBLN2 (endogenous Bornavirus like nucleoprotein 2) | 0.32 | inactive |
| EBLN2 (endogenous Bornavirus like nucleoprotein 2) | 1.85 | inactive |
| EBLN2 (endogenous Bornavirus like nucleoprotein 2) | 0.14 | inactive |
| EBLN2 (endogenous Bornavirus like nucleoprotein 2) | 0.16 | inactive |
| NANOG (Nanog homeobox) | 0.18 | inactive |
| NANOG (Nanog homeobox) | -1 | inactive |
| NANOG (Nanog homeobox) | -0.75 | inactive |
| NANOG (Nanog homeobox) | -0.55 | inactive |
| TMEM183BP (transmembrane protein 183B, pseudogene) | -0.43 | inactive |
| TMEM183BP (transmembrane protein 183B, pseudogene) | 0.04 | inactive |
| TMEM183BP (transmembrane protein 183B, pseudogene) | -0.3 | inactive |
| TMEM183BP (transmembrane protein 183B, pseudogene) | -0.08 | inactive |
| TECTA (tectorin alpha) | -0.66 | inactive |
| TECTA (tectorin alpha) | 1.11 | inactive |
| TECTA (tectorin alpha) | 0.14 | inactive |
| TECTA (tectorin alpha) | 0.28 | inactive |
| CEACAM8 (CEA cell adhesion molecule 8) | -0.74 | inactive |
| CEACAM8 (CEA cell adhesion molecule 8) | -0.53 | inactive |
| CEACAM8 (CEA cell adhesion molecule 8) | -0.75 | inactive |
| CEACAM8 (CEA cell adhesion molecule 8) | -0.08 | inactive |
| DSCR4 (Down syndrome critical region 4) | -0.62 | inactive |
| DSCR4 (Down syndrome critical region 4) | -1.1 | inactive |
| DSCR4 (Down syndrome critical region 4) | -1.22 | inactive |
| DSCR4 (Down syndrome critical region 4) | -0.91 | inactive |
| IFTAP (intraflagellar transport associated protein) | -0.01 | inactive |
| IFTAP (intraflagellar transport associated protein) | -0.42 | inactive |
| IFTAP (intraflagellar transport associated protein) | 0.76 | inactive |
| IFTAP (intraflagellar transport associated protein) | 0.27 | inactive |
| CYP4X1 (cytochrome P450 family 4 subfamily X member 1) | 1.41 | inactive |
| CYP4X1 (cytochrome P450 family 4 subfamily X member 1) | 0.64 | inactive |
| CYP4X1 (cytochrome P450 family 4 subfamily X member 1) | 1.45 | inactive |
| CYP4X1 (cytochrome P450 family 4 subfamily X member 1) | 3.51 | active |
| CCL4 (C-C motif chemokine ligand 4) | 0.49 | inactive |
| CCL4 (C-C motif chemokine ligand 4) | 0.22 | inactive |
| CCL4 (C-C motif chemokine ligand 4) | -0.43 | inactive |
| CCL4 (C-C motif chemokine ligand 4) | -0.46 | inactive |
| PRPF3 (pre-mRNA processing factor 3) | -0.06 | inactive |
| PRPF3 (pre-mRNA processing factor 3) | 0.87 | inactive |
| PRPF3 (pre-mRNA processing factor 3) | -0.43 | inactive |
| PRPF3 (pre-mRNA processing factor 3) | 1.33 | inactive |

Entries listed so far whose gene name begins with D or d:
| gene | TNF reporter robust z-score | outcome |
| --- | --- | --- |
| DSCR4 (Down syndrome critical region 4) | -0.62 | inactive |
| DSCR4 (Down syndrome critical region 4) | -1.1 | inactive |
| DSCR4 (Down syndrome critical region 4) | -1.22 | inactive |
| DSCR4 (Down syndrome critical region 4) | -0.91 | inactive |

The results go on.
| gene | TNF reporter robust z-score | outcome |
| --- | --- | --- |
| TG (thyroglobulin) | -0.08 | inactive |
| TG (thyroglobulin) | 0.53 | inactive |
| TG (thyroglobulin) | 0.83 | inactive |
| TG (thyroglobulin) | 0.86 | inactive |
| AKAP12 (A-kinase anchoring protein 12) | 0.24 | inactive |
| AKAP12 (A-kinase anchoring protein 12) | -0.56 | inactive |
| AKAP12 (A-kinase anchoring protein 12) | -0.83 | inactive |
| AKAP12 (A-kinase anchoring protein 12) | -0.27 | inactive |
| CDK12 (cyclin dependent kinase 12) | -0.44 | inactive |
| CDK12 (cyclin dependent kinase 12) | -0.97 | inactive |
| CDK12 (cyclin dependent kinase 12) | -0.79 | inactive |
| CDK12 (cyclin dependent kinase 12) | -0.93 | inactive |
| SLU7 (spliceosome associated SLU7) | 0.1 | inactive |
| SLU7 (spliceosome associated SLU7) | -0.25 | inactive |
| SLU7 (spliceosome associated SLU7) | 0 | inactive |
| SLU7 (spliceosome associated SLU7) | -1.05 | inactive |
| CACNG5 (calcium voltage-gated channel auxiliary subunit gamma 5) | 1.07 | inactive |
| CACNG5 (calcium voltage-gated channel auxiliary subunit gamma 5) | 1.56 | inactive |
| CACNG5 (calcium voltage-gated channel auxiliary subunit gamma 5) | 1.79 | inactive |
| CACNG5 (calcium voltage-gated channel auxiliary subunit gamma 5) | 1.41 | inactive |
| ARPP19 (cAMP regulated phosphoprotein 19) | -0.24 | inactive |
| ARPP19 (cAMP regulated phosphoprotein 19) | 1.09 | inactive |
| ARPP19 (cAMP regulated phosphoprotein 19) | 0.1 | inactive |
| ARPP19 (cAMP regulated phosphoprotein 19) | -0.01 | inactive |
| KALRN (kalirin RhoGEF kinase) | -0.88 | inactive |
| KALRN (kalirin RhoGEF kinase) | -0.43 | inactive |
| KALRN (kalirin RhoGEF kinase) | -1.02 | inactive |
| CAPZB (capping actin protein of muscle Z-line subunit beta) | 0.94 | inactive |
| CAPZB (capping actin protein of muscle Z-line subunit beta) | -0.75 | inactive |
| CAPZB (capping actin protein of muscle Z-line subunit beta) | 1.06 | inactive |
| CAPZB (capping actin protein of muscle Z-line subunit beta) | -0.72 | inactive |
| PNMA8A (PNMA family member 8A) | -0.32 | inactive |
| PNMA8A (PNMA family member 8A) | -0.34 | inactive |
| PNMA8A (PNMA family member 8A) | 0.58 | inactive |
| PNMA8A (PNMA family member 8A) | -0.65 | inactive |
| OPN5 (opsin 5) | 0.84 | inactive |
| OPN5 (opsin 5) | 1.03 | inactive |
| OPN5 (opsin 5) | 0.99 | inactive |
| OPN5 (opsin 5) | 0.03 | inactive |
| SCARB1 (scavenger receptor class B member 1) | 5.04 | active |
| SCARB1 (scavenger receptor class B member 1) | 2.57 | inactive |
| SCARB1 (scavenger receptor class B member 1) | 3.09 | active |
| SCARB1 (scavenger receptor class B member 1) | 2.77 | inactive |
| SOSTDC1 (sclerostin domain containing 1) | -0.25 | inactive |
| SOSTDC1 (sclerostin domain containing 1) | -0.49 | inactive |
| SOSTDC1 (sclerostin domain containing 1) | 0.22 | inactive |
| SOSTDC1 (sclerostin domain containing 1) | 0.32 | inactive |
| XPNPEP3 (X-prolyl aminopeptidase 3) | -0.41 | inactive |
| XPNPEP3 (X-prolyl aminopeptidase 3) | 0.18 | inactive |
| XPNPEP3 (X-prolyl aminopeptidase 3) | 0.01 | inactive |
| XPNPEP3 (X-prolyl aminopeptidase 3) | 0.91 | inactive |
| CCDC85B (coiled-coil domain containing 85B) | -1.45 | inactive |
| CCDC85B (coiled-coil domain containing 85B) | -1.52 | active |
| CCDC85B (coiled-coil domain containing 85B) | -1.55 | active |
| CCDC85B (coiled-coil domain containing 85B) | -1.44 | inactive |
| IP6K3 (inositol hexakisphosphate kinase 3) | 1.33 | inactive |
| IP6K3 (inositol hexakisphosphate kinase 3) | 1.31 | inactive |
| IP6K3 (inositol hexakisphosphate kinase 3) | 1.23 | inactive |
| IL25 (interleukin 25) | 1.1 | inactive |
| IL25 (interleukin 25) | 0.96 | inactive |
| IL25 (interleukin 25) | -0.46 | inactive |
| IL25 (interleukin 25) | 0.21 | inactive |
| C19orf53 (chromosome 19 open reading frame 53) | 1.56 | inactive |
| C19orf53 (chromosome 19 open reading frame 53) | 3.04 | active |
| C19orf53 (chromosome 19 open reading frame 53) | 3.22 | active |
| C19orf53 (chromosome 19 open reading frame 53) | 2.62 | inactive |
| AAMP (angio associated migratory cell protein) | 0.72 | inactive |
| AAMP (angio associated migratory cell protein) | 1.44 | inactive |
| AAMP (angio associated migratory cell protein) | 1.15 | inactive |
| AAMP (angio associated migratory cell protein) | 1 | inactive |
| OR8U1 (olfactory receptor family 8 subfamily U member 1) | 0.03 | inactive |
| OR8U1 (olfactory receptor family 8 subfamily U member 1) | 0.4 | inactive |
| OR8U1 (olfactory receptor family 8 subfamily U member 1) | 0.42 | inactive |
| OR8U1 (olfactory receptor family 8 subfamily U member 1) | -0.06 | inactive |
| GPRC5B (G protein-coupled receptor class C group 5 member B) | -0.62 | inactive |
| GPRC5B (G protein-coupled receptor class C group 5 member B) | -0.03 | inactive |
| GPRC5B (G protein-coupled receptor class C group 5 member B) | -1.2 | inactive |
| GPRC5B (G protein-coupled receptor class C group 5 member B) | -0.55 | inactive |
